# Experimental data reported in publication doi:10.1101/633560.
# Chains of the proteins cited; added tags and fusions are not shown.
# UniProt Q00613: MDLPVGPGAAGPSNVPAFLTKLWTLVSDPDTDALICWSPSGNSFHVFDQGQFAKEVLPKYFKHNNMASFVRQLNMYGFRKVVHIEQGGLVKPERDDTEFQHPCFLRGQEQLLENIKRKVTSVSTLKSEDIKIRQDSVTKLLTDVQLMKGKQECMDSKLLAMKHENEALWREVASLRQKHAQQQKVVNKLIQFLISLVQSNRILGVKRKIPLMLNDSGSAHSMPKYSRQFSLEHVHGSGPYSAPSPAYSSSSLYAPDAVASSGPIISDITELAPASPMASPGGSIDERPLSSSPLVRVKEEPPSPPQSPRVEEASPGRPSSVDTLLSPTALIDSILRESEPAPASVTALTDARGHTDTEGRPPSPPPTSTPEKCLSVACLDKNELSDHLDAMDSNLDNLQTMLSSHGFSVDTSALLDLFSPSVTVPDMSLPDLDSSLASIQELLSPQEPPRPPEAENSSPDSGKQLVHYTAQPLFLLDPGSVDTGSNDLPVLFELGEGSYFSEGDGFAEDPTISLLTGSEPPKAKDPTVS
# No constants are given. Whether binding was seen depends on the method and setting. Binding seen in cells or lysates may run through a third protein. Some results given as binding are weak or reduced against the parent protein; the word gives no strength. Tags and fused reporters may be left off the sequences shown.
# How the values were obtained:
# DYRK2-GFP, wild type = molecular target: T1, DYRK2-GFP, wild type (UniProt Q92630); assay: co-IP
# T1 sequence: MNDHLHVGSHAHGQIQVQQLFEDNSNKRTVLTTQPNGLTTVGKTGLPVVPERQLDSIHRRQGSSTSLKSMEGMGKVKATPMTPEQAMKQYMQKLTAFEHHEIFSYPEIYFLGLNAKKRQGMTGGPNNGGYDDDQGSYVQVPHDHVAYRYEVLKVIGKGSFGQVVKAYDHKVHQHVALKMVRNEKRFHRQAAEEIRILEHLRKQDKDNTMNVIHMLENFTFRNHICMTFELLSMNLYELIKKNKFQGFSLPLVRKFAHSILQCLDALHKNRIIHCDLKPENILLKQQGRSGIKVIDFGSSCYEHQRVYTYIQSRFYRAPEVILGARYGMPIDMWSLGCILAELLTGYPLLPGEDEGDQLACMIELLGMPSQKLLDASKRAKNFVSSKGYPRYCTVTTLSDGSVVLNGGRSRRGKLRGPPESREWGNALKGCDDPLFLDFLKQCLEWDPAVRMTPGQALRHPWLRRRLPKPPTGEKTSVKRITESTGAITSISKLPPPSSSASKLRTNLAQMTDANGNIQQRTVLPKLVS
# [1] = molecular target: T2, HA-tagged DYRK2 (dual-specificity tyrosine-regulated kinase 2) (UniProt Q92630); assay: co-IP
# T2 sequence: T1 sequence
substance,measurement,setting,value
Flag-tagged HSF1 (from UniProt Q00613 1-529),binding,"DYRK2-GFP, wild type",binds weakly
HSF1-GFP (heat shock factor 1) (from UniProt Q00613 1-529),binding,[1],binds weakly
